Source: patent publication US20250275949A1, “USE OF DITERPENE COMPOUND DERIVATIVE OR SALT THEREOF IN PREPARATION OF MEDICINE FOR PREVENTING AND TREATING ATOPIC DERMATITIS” (SUZHOU PHARMAVAN CO., LTD, priority 2022, published 2025)
Some of these results come from one statement about several compounds together.

Test system: OXA-induced AD model
Assay: OXA-induced AD mouse model, Example 1 (eight compounds in castor oil)
Type: in vivo, BALB/c mice
Conditions: 0.1% in castor oil, 50 μL per ear on auricle once a day, day 7 to day 23; compared with vehicle group
Excerpt: Experimental animals involved in the following embodiments were SPF-grade BALB/c mice (≥7 weeks old, female). The scoring criteria for skin lesions involved in the following embodiments are shown in Table 1 and the histopathological scoring criteria are shown in Table 2. [table] The day of grouping was defined as day 0. Mice were randomly divided into 11 groups: blank control (NC) group, model (OXA) group, blank castor oil (vehicle) group, Compound 1 administration group, Compound 2 administration group, Compound 3 administration group, Compound 4 administration group, Compound 5 administration group, Compound 6 administration group, Compound 7 administration group, and Compound 8 administration 10 group, with 5 animals in each group. Each group except NC group was treated for modeling AD. Day 0:0.8%-OXA solution was applied to the auricle of both ears at 20 μL per ear. Day 7, 10, 12, 14, 17, 19, 21, and 23:0.4%-OXA solution was applied to the auricle of both ears at 20 μL per ear. Each group except NC group and OXA group was administrated. The administration started from day 7 to day 23, and the mice was administrated once a day at the auricle of both ears by 50 μL per ear (100 μL per mouse). The condition of the animals was observed during the experimental period, and the auricle was scored for skin lesions (see Table 1 for skin lesion scoring criteria), and the thickness of the ears was measured. [table]

Row | Compound | right ear thickness on day 24
1 | C=C1C(=O)[C@@]23[C@H](O)C[C@@H]4C(C)(C)c5nc(NC)sc5C[C@@]4(C)[C@@H]2CC[C@@H]1[C@H]3O [Compound 3] | effectively ameliorate the ear thickness
2 | C=C1C(=O)[C@@]23[C@H](O)C[C@@H]4C(C)(C)c5nc(N(C)C)sc5C[C@@]4(C)[C@@H]2CC[C@@H]1[C@H]3O [Compound 1] | effectively ameliorate the ear thickness
3 | C=C1C(=O)[C@@]23[C@H](O)C[C@@H]4C(C)(C)c5nc(N(C(C)C)C(C)C)sc5C[C@@]4(C)[C@@H]2CC[C@@H]1[C@H]3O [Compound 7] | effectively ameliorate the ear thickness
4 | C=C1C(=O)[C@@]23[C@H](O)C[C@@H]4C(C)(C)c5nc(N)sc5C[C@@]4(C)[C@@H]2CC[C@@H]1[C@H]3O [Compound 2] | effectively ameliorate the ear thickness
5 | C=C1C(=O)[C@@]23[C@H](O)C[C@@H]4C(C)(C)c5nc(NCC)sc5C[C@@]4(C)[C@@H]2CC[C@@H]1[C@H]3O [Compound 4] | effectively ameliorate the ear thickness
6 | C=C1C(=O)[C@@]23[C@H](O)C[C@@H]4C(C)(C)c5nc(N(CC)CC)sc5C[C@@]4(C)[C@@H]2CC[C@@H]1[C@H]3O [Compound 5] | effectively ameliorate the ear thickness
7 | C=C1C(=O)[C@@]23[C@H](O)C[C@@H]4C(C)(C)c5nc(N(CCC)CCC)sc5C[C@@]4(C)[C@@H]2CC[C@@H]1[C@H]3O [Compound 6] | effectively ameliorate the ear thickness
